PubChem BioAssay AID1439 (NMMLSC, 2008)
About 770 (0.35%) of roughly 220,000 compounds were called active. The inconclusive results got no clear call from the source; some entries with a clear call stand among them for comparison. Cut-off read from the data, not from the text of the source: active = binding response below about 49% or above about 150%; inconclusive = no clear call, values can overlap the other calls; inactive = in between.

Amino acid sequences for entries named in this document (tags omitted).
UniProt P09471, whole entry, looked up: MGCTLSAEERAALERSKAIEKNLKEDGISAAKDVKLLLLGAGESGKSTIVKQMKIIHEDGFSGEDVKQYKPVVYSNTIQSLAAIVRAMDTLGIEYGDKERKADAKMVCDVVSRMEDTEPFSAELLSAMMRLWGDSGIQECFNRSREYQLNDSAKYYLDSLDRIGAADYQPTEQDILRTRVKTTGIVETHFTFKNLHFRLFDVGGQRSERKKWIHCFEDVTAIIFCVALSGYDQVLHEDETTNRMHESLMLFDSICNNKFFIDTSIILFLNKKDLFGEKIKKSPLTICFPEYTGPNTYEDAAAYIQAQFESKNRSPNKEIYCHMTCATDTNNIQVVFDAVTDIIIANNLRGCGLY

These compounds were tested against Guanine nucleotide-binding protein G(o) subunit alpha (Homo sapiens) (UniProt P09471) (assay: RGS7-Galphao binding modulators, primary screen, biochemical, multiplexed bead flow cytometry (AID 1439;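 note: fluorescent Galphao held in activated GDP-AlF4 state binding bead-coupled RGS7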)). Conditions: at 10 µM, actives lie on both sides.

Compound	binding response (% of control)
COc1cc(C(=O)NCC(=O)N/N=C/c2c(C)[nH]c3ccccc23)cc(OC)c1OC	inconclusive: 103%
COc1ccccc1Nc1nc(NCc2ccco2)c2ccccc2n1	inconclusive: 83.7%
Cc1ccc(S(=O)(=O)N2C(=O)/C(=C3\SC(=S)NC3=O)c3ccccc32)cc1	inconclusive: 98.2%
O=C1CSC2(N1)C1CC3CC(C1)CC2C3 (stereo unspecified)	inconclusive: 130%
O=C1CC(NC(=O)C(F)(F)F)=NN1c1ccccc1	inconclusive: 116%
CC1(C)CC(NC(=O)N2c3ccccc3Sc3ccccc32)CC(C)(C)N1	inconclusive: 103%
COc1cc(S(=O)(=O)Nc2cccc(C)c2)ccc1NC(=O)c1cccnc1	inactive: 115%
Cc1ccc2c(c1)nnn2C1CCN(CC(=O)NCc2ccccc2F)CC1	inconclusive: 102%
CCN(CC)S(=O)(=O)c1ccc(Cl)nc1	inactive: 105%
CCOC(=O)C1=C(C)NC(C)=C(C(=O)OC)C1c1ccco1 (stereo unspecified)	inconclusive: 107%
C/C(Cl)=C\C[N+](C)(C)CC(=O)OCCc1ccccc1	inconclusive: 114%
Cc1ccc(NC(=O)Cn2c(-c3ccc(F)cc3)cnc2SCC(=O)Nc2c(C)cccc2C)cc1	inactive: 103%
CC(=O)c1ccc(-c2ccccc2OC(F)(F)F)o1	inconclusive: 133%
CCc1ccc(NC(=O)c2ccccc2Br)cc1	inactive: 99.1%
Cn1c(C(=O)OC(C(=O)NC2CCCC2)c2cccnc2)cc2sccc21 (stereo unspecified)	inactive: 101%
CCOC(=O)c1nnn(CC(=O)NC(=O)Nc2cccc(CC)c2)c1C(=O)OCC	inconclusive: 93.9%
Cc1ccc(Nc2cc(C)c3ccc(O)cc3n2)cc1C	inconclusive: 86.1%
O=S(=O)(Cc1ccccc1)C1CCCCC1O (stereo unspecified)	inconclusive: 101%
O=C(NCCN1CCOCC1)c1ccc2c(c1)N(Cc1ccc(Cl)cc1)CCS2	inconclusive: 105%
N/C(Cc1ccc(Cl)c(Cl)c1)=N\OC(=O)c1ccc(Br)o1	inconclusive: 126%
Nc1ccc(NC2C[C@@H](C(=O)O)NC2=O)cc1 (stereo partly specified)	inconclusive: 143%
CC(C)c1nc2c(c(=O)c3ccccc3n2C)c(=O)n1CCc1ccccc1	inconclusive: 357%
CC(Oc1ccc(Cl)cc1Cl)C(=O)Nc1cccc(O)c1 (stereo unspecified)	inconclusive: 107%

Compound	binding response (% of control)
COc1ccc(CC(=O)NNC(=O)Cc2ccc(OC)cc2)cc1	inconclusive: 89.2%
COc1cccc(NC(=O)N2CCN(c3nc(-c4cccc(OC)c4)cs3)CC2)c1	inconclusive: 91%
N=c1sccn1CC(=O)Nc1cc(S(=O)(=O)N2CCCCC2)ccc1Cl	inconclusive: 115%
CC1(C)Cc2nc3scc(NC(=O)c4ccccc4)c3cc2CO1	inconclusive: -183%
CCOC(=O)c1c(N)sc2c1CCCC2=O	inconclusive: 123%
c1ccc2oc(NC3=NCN(C4CCCCC4)CN3)nc2c1	inconclusive: 93.4%
CC(CC(=O)O)Nc1ccccc1O (stereo unspecified)	inactive: 104%
Cc1ncc(CO)c(/C=N/NC(=S)Nc2cccc(Cl)c2)c1O	inconclusive: 53.1%
Cn1cnnc1Sc1ccc(/C=C(\CC(=O)O)c2nc3ccccc3s2)cc1[N+](=O)[O-]	inconclusive: 170%
CCC(=O)Nc1cccc(C2=NOC3(C2)C[C@@H](C(N)=O)N(C(=O)c2ccccc2C(=O)c2ccccc2)C3)c1 (stereo partly specified)	inconclusive: 139%
Cc1ccccc1Nc1c(-c2cccnc2)nc2ccccn12	inconclusive: 102%
Cn1c(N)c(Br)c(-c2ccc(F)cc2)c(C#N)c1=O	inconclusive: 111%
Cc1cc(C)cc(NC(=O)C(NCCN2CCOCC2)c2ccccc2)c1 (stereo unspecified)	inconclusive: 78.5%
Nc1cnc(Nc2ccc(Br)cc2)nc1N	inconclusive: -4.29%
COc1ccc(CNCC(=O)Nc2cccc(S(N)(=O)=O)c2)cc1	inconclusive: 95.1%
Cc1ccc2c(c1)COc1c3ccc(C(=O)N[C@@H](CO)C(C)C)cc3nn1-2	inconclusive: 112%
C=CCn1c(Cc2ccccc2)nnc1SCc1nc2ccccc2c(=O)[nH]1	inconclusive: 115%
O=C(c1ccc(Cl)cc1)N1CCN(c2cccc3[nH]ccc23)CC1	inconclusive: 113%
CC(C)(C)C(=O)N1NC(=Nc2ccccc2)SC1(C)C	inconclusive: -243%
FC(F)(F)c1cccc(NC(=S)N2CCN(c3ccccn3)CC2)c1	inconclusive: 85.1%
Cn1nc(C(C)(C)C)cc1C(=O)NNC(=O)c1cccc(Cl)c1	inconclusive: 70.8%
O=C(NCc1ccccc1)c1ccc(S(=O)(=O)N2CCCc3ccccc32)cc1	inactive: 97.6%
O=C(/C=C\Nc1ccc(Cl)cn1)c1ccc(Br)cc1	inactive: 103%

Sorted by count of non-hydrogen atoms (rising): some entries from above.
Compound	binding response (% of control)
CCOC(=O)c1c(N)sc2c1CCCC2=O	inconclusive: 123%
O=C(/C=C\Nc1ccc(Cl)cn1)c1ccc(Br)cc1	inactive: 103%
Cn1nc(C(C)(C)C)cc1C(=O)NNC(=O)c1cccc(Cl)c1	inconclusive: 70.8%
C=CCn1c(Cc2ccccc2)nnc1SCc1nc2ccccc2c(=O)[nH]1	inconclusive: 115%
